Measurements taken from PubChem BioAssay AID493014 (National Center for Advancing Translational Sciences (NCATS), 2011).
The other results are listed elsewhere or left out. Shown are side measurements of this screen, not its main read-out; they come without a call. Compounds called inactive in the main read-out are mostly missing here. Potencies come from curve fits of mixed quality, noted in brackets.

Assay: qHTS Assay to Find Inhibitors of Chronic Active B-Cell Receptor Signaling
Settings: ABC-DLBCL IkBa-CBG/CBR reporter, luminescence ratio (green luciferase fused to IkBa over red control in TMD8 lymphoma cells), 4 h
Outline: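 TMD8 human ABC-DLBCL cells with doxycycline-inducible IκBα–green luciferase fusion and unfused red luciferase, in 0.5% FBS medium; compounds up to 46 uM, 4 h at 37C. Green/red luminescence ratio, filter-overlap corrected, fitted to concentration-response curves.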

[1] = measured here: CBR red luminescence, cell number
[2] = measured here: IkBa-CBG green luminescence

Row | SMILES | AC50 [1] | AC50 [2]
1 | CCC1CCCCN1C(=O)c1sc2nc(C)nc(N(CC)CC)c2c1C (configuration not stated) | 12.6 µM [falling, partial curve] | –
2 | CCOC(=O)c1cc(C)n(CCc2ccccc2)c1C | 1.3 µM [rising, partial curve, poor fit] | –
3 | CCCCc1cc(=O)oc2c(C)c(OCC(=O)N3CCC(C(N)=O)CC3)ccc12 | 1.58 µM [rising, full curve, poor fit] | –
4 | Cc1cc(C)nc(SCc2ccc(Cl)cc2)n1 | 22.4 µM [rising, single point] | –
5 | COc1ccc(C2C(C#N)=C(N)Oc3c2c(C)nn3-c2ccccc2)cc1Cn1nc(C)c([N+](=O)[O-])c1C (configuration not stated) | 22.4 µM [falling, single point] | –
6 | CCn1cc(Cl)c(C(=O)Nc2nccs2)n1 | 0.794 µM [falling, full curve] | –
7 | Cc1cc2nncn2c2ccccc12 | 0.00517 µM [falling, full curve, poor fit] | –
8 | C/C(CC(=O)Nc1ccc(Cl)c(C(F)(F)F)c1)=N\NC(=O)c1cnccn1 | 5.01 µM [falling, partial curve] | –
9 | COc1ccc(NC(=O)c2ccccc2)cc1 | 13 µM [falling, partial curve] | –
10 | CCc1cccc(C)c1NC(=O)C1C2CCC(O2)C1C(=O)O (configuration not stated) | 14.6 µM [rising, single point] | –
11 | CCNC(=S)N(Cc1cc2cc(C)ccc2[nH]c1=O)C1CCCC1 | 14.6 µM [falling, partial curve, poor fit] | –
12 | O=C1NC2(CCCC2)N=C1c1ccc(Cl)cc1 | 3.16 µM [rising, full curve, poor fit] | –
13 | Cc1ccc(N/C=C(\C#N)S(=O)(=O)c2ccccc2)cc1 | 35.5 µM [falling, partial curve, poor fit] | –
14 | O=C(CSc1nnc(Nc2ccccc2F)s1)NC1CCCC1 | 3.26 µM [falling, full curve] | –
15 | OCCNc1nc(-c2ccccc2)c2cc(Cl)ccc2n1 | – | 0.316 µM [rising, full curve, poor fit]
16 | O=C(O)CCC(=O)Nc1nc2ccccc2s1 | 5.8 µM [falling, partial curve] | –
17 | CSc1ccccc1NC(=O)CN(C)C(=O)Cn1c(=O)oc2ccccc21 | 16.4 µM [falling, partial curve, poor fit] | –
18 | CC(=O)Nc1ccc(S(=O)(=O)NNC(=O)NC23CC4CC(CC(C4)C2)C3)cc1 | 12.6 µM [falling, partial curve, poor fit] | –
19 | C=CCN1CCc2cc(O)c(O)cc2C(c2ccccc2)C1 (configuration not stated) | 29.1 µM [falling, single point] | –
20 | Cc1ccsc1C(=O)OCC(=O)N1CCc2ccccc2C1 | 3.98 µM [falling, partial curve] | –
21 | Cc1cc(CN2CCCCC2C(=O)Nc2ccc(Oc3cccnc3)cc2)oc1C (configuration not stated) | 0.501 µM [rising, full curve, poor fit] | –
22 | COc1ccc2nc(SCC(=O)/C(C#N)=C(\C)N)[nH]c2c1 | 22.4 µM [falling, single point] | –

Row | SMILES | AC50 [1] | AC50 [2]
23 | CC1(C)CC(c2nc(-c3ccc(Br)cc3)cs2)CCS1 (configuration not stated) | 4.11 µM [rising, partial curve, poor fit] | –
24 | Cc1cc(C(=O)NNC(=S)NCC2CCCO2)cs1 (configuration not stated) | 0.794 µM [rising, full curve, poor fit] | –
25 | CCOc1ccc(NC(=O)c2nsc(Cl)c2Cl)cc1 | 22.4 µM [falling, single point] | –
26 | COc1ccc(/C=C/c2c(-c3ccc(OC)cc3)oc(=O)c3cc(OC)c(OC)cc23)cc1 | 0.58 µM [rising, partial curve, poor fit] | –
27 | CC12CCC(c3c(C(=O)O)nn(-c4ccc(F)cc4)c31)C2(C)C (configuration not stated) | 6.51 µM [rising, single point] | –
28 | CCC1(CC)NC(=O)N(CC(=O)Nc2ccc(OCc3ccccc3)cc2)C1=O | 29.1 µM [rising, single point] | –
29 | CCOC(=S)SCC(=O)Nc1nc(-c2ccccc2)cs1 | – | 29.1 µM [falling, single point]
30 | COc1ccccc1N(C)S(=O)(=O)c1ccc(C)c(C(=O)Nc2nccs2)c1 | 1.84 µM [falling, partial curve, poor fit] | –
31 | NS(=O)(=O)c1ccc(NC(=O)COC(=O)c2cn(-c3ccccc3)nc2-c2ccccc2)cc1 | 15.8 µM [rising, single point] | –
32 | O=C(CCl)N(C/C=C/c1ccccc1)c1ccc2c(c1)OCCO2 | 3.55 µM [falling, full curve, poor fit] | –
33 | CCOc1ccccc1CNC(=O)CCc1cn(CC)c2ccccc12 | 15.8 µM [falling, single point] | –
34 | Cc1ccc(NC(=O)CSCC(=O)OCc2cc(=O)oc3cc(O)ccc23)c(C)c1 | 32.6 µM [rising, partial curve, poor fit] | –
35 | Cc1ccc2nc(C3CCCN(C(=S)Nc4cccc(C)c4C)C3)[nH]c2c1 (configuration not stated) | 12.6 µM [falling, single point] | –
36 | Cc1ccc(S(=O)(=O)N2CCC(C(=O)NCc3ccccc3CN3CCCC3)CC2)cc1C | 14.6 µM [falling, partial curve, poor fit] | –
37 | O=C(OCC#CCSc1nnc(-c2cccc3ccccc23)o1)c1ccc(Br)cc1 | 6.51 µM [rising, single point] | –
38 | CN1C(=O)C(C(=O)NC(C)(C)C)C2c3ccccc3OC13CCCCC23 (configuration not stated) | 0.708 µM [falling, full curve, poor fit] | –
39 | NC(=O)C1CCN(c2nc(-c3cccs3)cs2)CC1 | 20.6 µM [rising, single point] | –
40 | CCc1ccc2nc(SCC(=O)N3CC(=O)Nc4ccccc43)c(C#N)cc2c1 | 29.1 µM [rising, single point] | 18.4 µM [falling, partial curve, poor fit]
41 | CC(=O)Cc1nsc(Nc2ccc(Cl)cc2)n1 | 35.5 µM [falling, single point] | –
42 | CN(C)S(=O)(=O)c1cccc(-c2cn3ccccc3n2)c1 | 0.562 µM [falling, partial curve, poor fit] | –
43 | Cc1ccc(N(CC(=O)NCc2ccccc2Cl)S(=O)(=O)c2cccs2)cc1 | 29.1 µM [falling, single point] | –
44 | O=C(Nc1ccccc1)Nc1nc(-c2ccc(F)cc2)cs1 | 32.6 µM [falling, single point] | –

Row | SMILES | AC50 [1] | AC50 [2]
45 | CC(=O)Nc1cccc(OCC(=O)NC(C)C(C)C)c1 (configuration not stated) | 1.84 µM [falling, single point] | –
46 | N#CC1=C2SCC(O)(c3ccccc3)N2C(=O)CC1c1cccs1 (configuration not stated) | 35.5 µM [falling, single point] | 3.55 µM [falling, full curve]
47 | COC(=O)CSC(C(=O)Nc1ccc(C)c(C)c1)c1ccccc1 (configuration not stated) | 10 µM [rising, partial curve] | –
48 | CC(C)(C)C(=O)N1CCN(c2nc3ccc(Cl)cc3s2)CC1 | 14.1 µM [rising, partial curve, poor fit] | –
49 | CCc1cc2c(SCC(=O)N(CC)c3c(N)n(Cc4ccccc4)c(=O)[nH]c3=O)ncnc2s1 | 5.62 µM [rising, single point] | –
50 | O=c1c2cnn(-c3ccccc3)c2nnn1Cc1ccccn1 | 20.6 µM [falling, single point] | –
51 | O=C(Nc1scc(-c2ccccc2)c1C(=O)O)c1ccc(F)cc1 | 11.2 µM [falling, partial curve] | –
52 | CCn1c(C(c2ccccc2)c2ccccc2)n[nH]c1=S | 29.1 µM [falling, single point] | –
53 | Cn1c(=N)n(CC(=O)c2cccs2)c2ccccc21 | 2.82 µM [rising, full curve, poor fit] | –
54 | COc1ccccc1NC(=O)Nc1nc(C(C)(C)C)cs1 | 8.91 µM [falling, partial curve, poor fit] | –
55 | CCN(CC)c1ccc(NC(=O)COC(=O)CCC(=O)c2ccc(F)cc2)cc1 | 23.1 µM [falling, partial curve, poor fit] | –
56 | CC(CNc1nc2ccc(Cl)cc2n2cnnc12)c1ccccc1 (configuration not stated) | 0.562 µM [rising, full curve, poor fit] | –
57 | COc1cc2c(cc1OC)CN(C(=O)c1ccc3nc[nH]c3c1)CC2 | – | 12.6 µM [falling, single point]
58 | CCOc1ccccc1-n1c(SCC(=O)Nc2nccs2)nnc1-c1ccoc1C | 7.08 µM [falling, partial curve, poor fit] | –
59 | COc1ccc(CNC(=O)c2nc(S(=O)(=O)Cc3ccccc3)ncc2Cl)cc1 | 2.82 µM [falling, full curve, poor fit] | –
60 | O=[N+]([O-])c1cccc(-c2csc(CS(=O)(=O)Cc3ccco3)n2)c1 | 12.6 µM [rising, partial curve, poor fit] | –
61 | Cc1cccc(OCCOCCN2CCOCC2)c1C | 3.66 µM [rising, partial curve] | –
62 | C/C(NCc1cccnc1)=C(\C#N)C(=O)NCc1ccccc1 | 7.94 µM [rising, partial curve, poor fit] | –
63 | O=C(c1cc2ccccc2oc1=O)N1CCN(S(=O)(=O)c2ccccc2)CC1 | 7.08 µM [rising, partial curve, poor fit] | –
64 | C/C(=N\NC(=O)c1ccc(Cl)c(Cl)c1)c1ccccn1 | 2 µM [rising, full curve] | –
65 | COc1ccccc1OCc1ccc(C(=O)n2nc(C)c(Cl)c2C)o1 | 0.00517 µM [falling, full curve, poor fit] | –

Four entries from above, set out differently.
COc1ccc(C2C(C#N)=C(N)Oc3c2c(C)nn3-c2ccccc2)cc1Cn1nc(C)c([N+](=O)[O-])c1C (configuration not stated)
  AC50 [1]: 22.4 µM [falling, single point]
Cc1ccc(N/C=C(\C#N)S(=O)(=O)c2ccccc2)cc1
  AC50 [1]: 35.5 µM [falling, partial curve, poor fit]
Cc1ccc(NC(=O)CSCC(=O)OCc2cc(=O)oc3cc(O)ccc23)c(C)c1
  AC50 [1]: 32.6 µM [rising, partial curve, poor fit]
Cc1cccc(OCCOCCN2CCOCC2)c1C
  AC50 [1]: 3.66 µM [rising, partial curve]
